Test results reported in article PMC9524669.
Results are given in words; binding and its absence hold for the method and conditions named. In cells and extracts the contact can be indirect. Some entries that bind do so weakly or less than the wild type.

Chains of the proteins cited; added tags and fusions are not shown.
UniProt Q5SQI0: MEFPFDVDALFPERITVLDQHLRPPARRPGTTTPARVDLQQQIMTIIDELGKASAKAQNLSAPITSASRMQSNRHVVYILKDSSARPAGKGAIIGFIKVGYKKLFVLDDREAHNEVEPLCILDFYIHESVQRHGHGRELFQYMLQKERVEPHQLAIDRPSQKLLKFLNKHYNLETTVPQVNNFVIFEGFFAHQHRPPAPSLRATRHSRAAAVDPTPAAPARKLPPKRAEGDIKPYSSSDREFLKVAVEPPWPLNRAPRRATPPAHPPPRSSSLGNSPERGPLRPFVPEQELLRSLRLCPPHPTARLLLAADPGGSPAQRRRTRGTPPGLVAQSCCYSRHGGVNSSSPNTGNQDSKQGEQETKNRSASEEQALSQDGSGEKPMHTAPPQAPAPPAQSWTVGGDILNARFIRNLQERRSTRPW
UniProt P08670: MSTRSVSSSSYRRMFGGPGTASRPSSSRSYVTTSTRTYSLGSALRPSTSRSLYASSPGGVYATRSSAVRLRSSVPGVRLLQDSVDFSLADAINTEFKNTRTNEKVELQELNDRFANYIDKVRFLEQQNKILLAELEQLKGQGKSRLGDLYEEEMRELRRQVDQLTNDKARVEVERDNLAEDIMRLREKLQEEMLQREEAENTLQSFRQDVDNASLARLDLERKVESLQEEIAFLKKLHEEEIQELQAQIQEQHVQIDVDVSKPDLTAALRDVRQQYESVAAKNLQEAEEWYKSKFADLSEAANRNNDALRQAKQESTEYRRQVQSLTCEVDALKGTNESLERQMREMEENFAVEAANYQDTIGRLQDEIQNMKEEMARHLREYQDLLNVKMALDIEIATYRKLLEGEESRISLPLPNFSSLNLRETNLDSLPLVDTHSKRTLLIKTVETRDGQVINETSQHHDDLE

Biological target: α-tubulin acetyltransferase 1 (α-TAT1), Myc-tagged (UniProt Q5SQI0)
Assay: co-IP; proteins co-transfected in HEK293T; IP with anti-c-Myc tag affinity gel overnight at 4°C; wash buffer with 500 mM NaCl, 1% Triton X-100

FLAG-tagged vimentin (VIM) (from UniProt P08670 1-466)
binding: binds
